Results as given in paper PMC4893672.
Results are given in words; binding and its absence hold for the method and conditions named. Binding seen in cells or lysates may run through a third protein.

Sequences of proteins named here, by UniProt entry; tags and fusion partners are left off.
UniProt Q99836: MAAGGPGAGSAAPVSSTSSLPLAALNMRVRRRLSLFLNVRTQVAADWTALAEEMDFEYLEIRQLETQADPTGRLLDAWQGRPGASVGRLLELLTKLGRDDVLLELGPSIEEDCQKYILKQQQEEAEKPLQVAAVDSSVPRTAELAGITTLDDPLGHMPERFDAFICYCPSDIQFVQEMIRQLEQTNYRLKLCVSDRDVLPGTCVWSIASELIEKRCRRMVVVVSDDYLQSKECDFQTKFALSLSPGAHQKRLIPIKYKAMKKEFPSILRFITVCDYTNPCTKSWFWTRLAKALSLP
UniProt P27448: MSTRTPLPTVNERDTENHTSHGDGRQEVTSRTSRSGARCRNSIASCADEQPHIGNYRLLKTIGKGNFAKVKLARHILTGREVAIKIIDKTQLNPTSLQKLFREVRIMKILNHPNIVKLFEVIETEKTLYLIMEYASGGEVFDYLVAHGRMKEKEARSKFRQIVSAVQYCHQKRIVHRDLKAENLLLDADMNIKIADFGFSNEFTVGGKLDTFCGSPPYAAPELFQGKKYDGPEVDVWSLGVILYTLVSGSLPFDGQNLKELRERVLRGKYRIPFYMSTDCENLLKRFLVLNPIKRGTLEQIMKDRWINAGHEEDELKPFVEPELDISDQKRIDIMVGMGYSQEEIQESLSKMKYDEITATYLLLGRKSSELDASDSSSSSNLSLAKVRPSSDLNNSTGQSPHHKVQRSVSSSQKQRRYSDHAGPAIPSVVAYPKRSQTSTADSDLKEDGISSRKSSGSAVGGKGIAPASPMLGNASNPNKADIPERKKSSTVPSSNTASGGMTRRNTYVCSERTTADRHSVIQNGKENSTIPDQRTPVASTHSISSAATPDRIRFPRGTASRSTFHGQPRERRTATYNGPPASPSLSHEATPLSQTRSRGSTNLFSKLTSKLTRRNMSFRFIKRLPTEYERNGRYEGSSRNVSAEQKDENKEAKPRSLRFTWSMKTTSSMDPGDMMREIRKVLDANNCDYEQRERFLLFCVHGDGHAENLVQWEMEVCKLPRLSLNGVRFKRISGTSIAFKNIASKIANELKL

How the values were obtained:
FLAG-PQS1-MyD88 (human) = FLAG-PQS1-MyD88 (human) (UniProt Q99836); assay: co-IP; HEK293T cells transfected with pairs of FLAG-PQS1- and Myc-PQS2-tagged proteins; anti-FLAG or anti-Myc antibody coupled to magnetic beads; on-bead tryptic digestion; PQS1 and PQS2 peptides quantified by SRM against heavy labeled peptides
FLAG-PQS1-Ras (human) = FLAG-PQS1-Ras (human) (UniProt P01112); assay: as above

| Substance | binding (FLAG-PQS1-MyD88 (human)) | binding (FLAG-PQS1-Ras (human)) |
| --- | --- | --- |
| Myc-PQS2-MARK3 (from UniProt P27448 1-753) | no binding | – |
| Myc-PQS2-Mal (from UniProt P58753 1-221) | – | no binding |
